Source: article PMC5585231
No constants are given. Whether binding was seen depends on the method and setting. Some results given as binding are weak or reduced against the parent protein; the word gives no strength.

Amino acid sequences for entries named in this document (tags omitted). Residues count along the entry.
UniProt P20963, residues 71-135: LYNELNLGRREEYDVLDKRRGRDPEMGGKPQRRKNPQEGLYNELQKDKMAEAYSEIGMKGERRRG

Target: T1, SIVmac239 Nef (66-235) (SIVmac239)
T1 sequence: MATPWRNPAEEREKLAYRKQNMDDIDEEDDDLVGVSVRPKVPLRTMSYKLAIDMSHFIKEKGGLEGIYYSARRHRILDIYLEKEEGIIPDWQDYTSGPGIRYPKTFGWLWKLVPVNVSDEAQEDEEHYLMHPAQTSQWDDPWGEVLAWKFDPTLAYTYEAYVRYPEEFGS
Assay: SEC; analytical gel filtration, Superdex S75 (10/300 GL); 20 mM HEPES (pH 8.0), 100 mM NaCl, 1 mM TCEP, room temperature; both purified

For “CD3 ζ (71-135) (from UniProt P20963-1 71-135) (domain or fragment)”, the binding was “binds”.
